Experimental data: PubChem BioAssay AID493246 (Drosophila RNAi Screening Center, 2011)
The deposit covers about 21,000 reagents; below is an unselected part of those that have a named target and a result. Over the whole deposit, 429 (2%) were called active. 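Values are raw and not normalised between plates; calls rest on per-plate z-scores that were not deposited.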 Reagents against one gene are numbered here. Not stated in the record: the amount of reagent, the time to read-out.

Aim: 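Genome-wide search for dsRNAs that reduce cell number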 (primary screen)
Cells: Drosophila Kc and S2R+ cells
Reagent: long dsRNA against Drosophila genes
Measurement: 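Cell number per well after knock-down, printed as raw plate values; calls were based on per-plate z-scores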
Direction: Kc cell number and S2R+ cell number: higher = more cells remaining
Call rule: 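Counted as a hit if cell number falls by a z-score of at least 3 within its plate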

predicted target	reagent	Kc cell number, rep 1	Kc cell number, rep 2	S2R+ cell number, rep 1	S2R+ cell number, rep 2	Call
CG33252	1	1.53e6	1.83e6	1.13e6	1.26e6	inactive
CG14204	1	1.51e6	1.58e6	8.98e5	1.03e6	inactive
cib	1	1.37e6	1.30e6	9.99e5	1.11e6	inactive
Ten-m	1	1.42e6	1.42e6	1.41e6	1.49e6	inactive
Ten-m	2	1.39e6	1.42e6	1.41e6	1.51e6	inactive
l(2)10685	1	1.22e6	1.30e6	1.07e6	9.90e5	inactive
CG15435	1	1.59e6	1.64e6	1.20e6	1.41e6	inactive
CG5334	1	1.35e6	1.42e6	1.09e6	1.15e6	inactive
CstF50	1	4.91e5		7.77e5		inactive
CG10909	1	1.80e6	1.98e6	1.36e6	1.51e6	inactive
caz	1	1.36e6	1.41e6	9.54e5	1.08e6	inactive
mthl15	1	1.44e6	1.52e6	9.74e5	1.05e6	inactive
Pgant2	1	1.66e6	1.58e6	1.11e6	1.23e6	inactive
CG30196	1	1.52e6	1.60e6	1.23e6	1.39e6	inactive
CG5196	1	1.44e6	1.54e6	1.38e6	1.51e6	inactive
betaTub65B	1	1.44e6	1.21e6	1.17e6	1.18e6	inactive
CG14014	1	1.71e6	2.09e6	1.07e6	1.21e6	inactive
CG14073	1	1.71e6	1.81e6	1.26e6	1.42e6	inactive
mRpL9	1	9.98e5	1.11e6	1.04e6	1.13e6	inactive
CG32437	1	1.37e6	1.56e6	1.21e6	1.32e6	inactive
Or7a	1	1.47e6	1.46e6	9.86e5	1.12e6	inactive
CG15922	1	1.32e6	1.49e6	1.06e6	1.13e6	inactive
dlt	1	1.76e6	1.66e6	1.17e6	1.47e6	inactive
Fdx1	1	1.24e6	1.52e6	1.19e6	1.16e6	inactive

A stretch taken from the entries so far, as a working copy:
predicted target	reagent	Kc cell number, rep 1	Kc cell number, rep 2	S2R+ cell number, rep 1	S2R+ cell number, rep 2	Call
betaTub65B	1	1.44e6	1.21e6	1.17e6	1.18e6	inactive
CG14014	1	1.71e6	2.09e6	1.07e6	1.21e6	inactive
CG14073	1	1.71e6	1.81e6	1.26e6	1.42e6	inactive
mRpL9	1	9.98e5	1.11e6	1.04e6	1.13e6	inactive
